# Experimental data reported in US20250044294A1, “COMPOSITION AND METHOD OF TREATING A CANCER THROUGH AFFECTING MEMBRANE RECEPTORS OF CANCER CELLS AND THEIR DERIVED EXTRACELLULAR VESICLES” (National Yang Ming Chiao Tung University, priority 2023, published 2025).
# Like-named read-outs stand apart in the source and are kept apart here.
# How the values were obtained:
# Test in all cases: cells
# Conditions in all cases: Homo sapiens, read-out: IC50 of PCP
# BxPC-3 cells = tested on: BxPC-3 cells
# AsPC-1 cells = tested on: AsPC-1 cells
# PANC-1 cells = tested on: PANC-1 cells
smiles,measurement,setting,value
"CN1CCN(CCCN2c3ccccc3Sc3ccc(Cl)cc32)CC1 [PCP, Prochlorperazine]",IC50,"BxPC-3 cells; BXPC-3, 24 h",> 20 µM
same,IC50,"BxPC-3 cells; BXPC-3, 48 h",17.9 ± 2.1 µM
same,IC50,"AsPC-1 cells; ASPC1, 24 h",> 20 µM
same,IC50,"AsPC-1 cells; ASPC1, 48 h",> 20 µM
same,IC50,"AsPC-1 cells; ASPC1, 72 h",19.9 ± 1.1 µM
same,IC50,"PANC-1 cells; PANC-1, 24 h",> 20 µM
same,IC50,"PANC-1 cells; PANC-1, 48 h",> 20 µM
same,IC50,"PANC-1 cells; PANC-1, 72 h",15.4 ± 0.8 µM
